Reference: publication PMC5333395, “Assessing histone demethylase inhibitors in cells: lessons learned” (Epigenetics & Chromatin, 2017)
Some entries of the source have several records that differ or are many. The other results are left out here. There may be further records. Results that share an entry do not match, cause unknown; some may be repeats, others may stem from another dose, organism or construct than stated.

Test system: Caco-2 human colon carcinoma cell line
Test: Caco-2 permeability
Conditions: P app

Question: How did the “Caco-2 (A to B flux)” value turn out when `CCN(CCN(C)C)C(=O)CNCc1cc(C(=O)O)ccn1` [KDOAM-20] was run?
Answer: low cell permeability and <0.76 x10-6 cm/s
